# Hit rate of the full screen: of about 580,000 compounds, about 6,100 (1.1%) were called active. Inconclusive results, whose numbers are uncertain, are shown with a selection of clear calls. The call rests on the fitted dose curve; in most records, active means well fitted inhibition curve with a large enough effect; inconclusive means small, poorly fitted or top-dose-only effect, or another doubt; inactive means no such curve, though single readings can be large or run the other way. A potency beside an inconclusive call is a rough fit, not a confirmed value.
# The chains behind the UniProt entries cited, without tags or fusion partners. Where a name states a change or a piece, a line headed by the entry shows the natural chain unless it says otherwise.
# UniProt P18054: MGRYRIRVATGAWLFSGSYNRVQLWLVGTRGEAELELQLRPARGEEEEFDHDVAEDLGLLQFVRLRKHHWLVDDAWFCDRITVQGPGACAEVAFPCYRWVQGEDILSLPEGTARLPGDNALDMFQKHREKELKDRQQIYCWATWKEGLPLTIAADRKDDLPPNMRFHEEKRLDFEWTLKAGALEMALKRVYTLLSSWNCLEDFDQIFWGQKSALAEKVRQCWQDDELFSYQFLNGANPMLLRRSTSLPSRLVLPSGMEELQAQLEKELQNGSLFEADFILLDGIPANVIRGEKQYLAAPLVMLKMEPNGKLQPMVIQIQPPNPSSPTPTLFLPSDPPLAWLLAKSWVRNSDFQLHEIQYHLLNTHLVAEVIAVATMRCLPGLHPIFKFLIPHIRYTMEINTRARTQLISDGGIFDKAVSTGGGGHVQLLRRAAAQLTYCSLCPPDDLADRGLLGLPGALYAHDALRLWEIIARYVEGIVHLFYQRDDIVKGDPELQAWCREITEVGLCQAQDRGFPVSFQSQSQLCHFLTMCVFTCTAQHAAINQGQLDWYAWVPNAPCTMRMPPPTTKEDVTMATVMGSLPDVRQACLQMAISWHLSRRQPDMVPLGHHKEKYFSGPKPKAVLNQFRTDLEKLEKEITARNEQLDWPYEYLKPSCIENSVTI
# Biological target: Polyunsaturated fatty acid lipoxygenase ALOX12 (Homo sapiens) (UniProt P18054)
# Assay: Primary qHTS assay for inhibitors of human arachidonate 12S-lipoxygenase (ALOX12): Round 2
# Conditions: purified 12hLO, xylenol orange hydroperoxide absorbance; activity change, negative = inhibition: at 108 µM (top of the series) unless noted
# Procedure, shortened: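 Purified human 12hLO at 150 nM in 25 mM Hepes, 0.01% Triton X-100, pH 7.0, preincubated 15 min at room temperature with compound. Reaction started with 40 uM arachidonic acid, 30 min at room temperature. Hydroperoxide measured by Fe-xylenol orange, 573/405 nm absorbance ratio.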
# On the % scale 0 is the no-effect control and ±100 the full control effect; potency means the concentration at half of the fitted maximal effect.
Compound,"activity change, negative = inhibition",Potency
O=C(CSc1nc2cc(Cl)ccc2s1)NCCc1ccc(F)cc1,inactive: 48.4%,
CCC1=C(C(=O)OC)C(c2ccccc2OC)N2C(CC(=O)N3CCC(C)CC3)=CSC2=N1 (stereo unspecified),,"inconclusive: 3.98 µM [inhibitor, full curve, poor fit]"
COC(=O)c1cccc(NC(=O)CSc2ncnc3c(-c4ccc(OC)cc4)c[nH]c23)c1,,"inconclusive: 2 µM [inhibitor, full curve, poor fit]"
Cc1ccccc1CNS(=O)(=O)c1c(C)[nH]c(C)c1C(=O)N1CCCCC1,inactive: 14.8%,
Cc1cc(NC(=O)COc2cccnc2[N+](=O)[O-])no1,inactive: 11.1%,
O=C(Nc1ccc(F)c(Cl)c1)c1cnc(-c2ccccc2)nc1-c1ccncc1,,"inconclusive: 89.1 µM [inhibitor, single point]"
CCCC1C2CN(C(C)C)CC=C2C(C#N)=C(N)C1(C#N)C#N (stereo unspecified),,"inconclusive: 2.51 µM [inhibitor, full curve, poor fit]"
O=S(=O)(Nc1ccc(Cl)cc1)c1ccc2c(c1)CCO2,,"inconclusive: 112 µM [inhibitor, single point]"
CCOc1ccccc1C(=O)N1CCN(Cc2ccc(=O)n(C)c2)CC1,inactive: 35.9%,
C=CCc1c(C)nc(Nc2nc(C)c3cc(C)ccc3n2)[nH]c1=O,,"inconclusive: 39.8 µM [inhibitor, partial curve]"
Oc1c(C=C2N=c3ccccc3=N2)sc(=S)n1C1CCCC1,inactive: 7.7%,
COc1ccccc1NC(=O)Nc1ccc(-n2ccc(C(F)(F)F)n2)cc1,,"inconclusive: 39.8 µM [inhibitor, single point]"
CC(NC(=O)CSc1nnc(C2CC2)n1C1CC1)c1ccc2c(c1)CCCC2 (stereo unspecified),,"inconclusive: 35.5 µM [inhibitor, single point]"
O=C(c1ccccc1)N1CCCC(n2cc(-c3nc(-c4ccccc4)no3)nn2)C1 (stereo unspecified),inactive: 2.59%,
CCOC(=O)Cc1csc(NC(=O)c2cc(OC)cc(OC)c2)n1,,"inconclusive: 6.31 µM [inhibitor, partial curve, poor fit]"
Cn1ccnc1SCc1ccc([N+](=O)[O-])cc1,inactive: 0%,
Cc1ccc(OCCCC(=O)N(C)CC(=O)Nc2ccccc2Br)cc1,inactive: -3.66%,
Cn1cncc1C(=O)N1CCCn2ccnc2C1c1ccccc1 (stereo unspecified),inactive: 58.5%,
CC(C(=O)Nc1ccc(F)cc1F)N1CCN(c2ccc([N+](=O)[O-])c3cnccc23)CC1 (stereo unspecified),,"inconclusive: 3.98 µM [inhibitor, full curve, poor fit]"
COc1ccc2nc3oc(C(=O)NCc4cccs4)cc3cc2c1,inactive: -20.6%,
O=C(NCC#Cc1ccccc1)c1cccc2cccnc12,inactive: 63.7%,
O=C(NC1CC2CCC(C1)N2C(=O)NC1CCCCC1)NC12CC3CC(CC(C3)C1)C2 (stereo unspecified),,"inconclusive: 50.1 µM [inhibitor, single point]"
CN(c1ccccc1)c1ccc2nnc(-c3cc(C(=O)NCc4cccnc4)ccn3)n2n1,,"inconclusive: 14.1 µM [inhibitor, full curve]"
CC1=CN2C(=N)/C(=C/c3ccc(C)o3)C(=O)N=C2S1,,"inconclusive: 56.2 µM [inhibitor, partial curve, poor fit]"

Compound,"activity change, negative = inhibition",Potency
CCCCN(C)C(=O)c1cc(-c2ccc(C)cc2)cn1CC,,"inconclusive: 15.8 µM [inhibitor, full curve]"
COc1cc(C(=O)NC2CCCc3c2[nH]c2c(Cl)cccc32)cc(OC)c1OC (stereo unspecified),,"inconclusive: 15.8 µM [inhibitor, full curve, poor fit]"
NC(Cc1ccc(Cl)cc1)c1csc(NC(=O)NCC2CCCCC2)n1 (stereo unspecified),,"inconclusive: 50.1 µM [inhibitor, partial curve, poor fit]"
COc1cccc(-n2cnc3c(sc4nc(N5CCOCC5)c5c(c43)CCCC5)c2=O)c1,inactive: 19%,
C[C@@H]1CN([C@@H](C)CO)C(=O)c2cc(NC(=O)C3CC3)ccc2O[C@@H]1CN(C)C(=O)NC1CCCCC1,inactive: -1.67%,
COc1cc2c(cc1OC)[C@@H]1N(C)c3ccccc3[C@@]13CCN(S(=O)(=O)C(F)(F)F)C3=C2,,"inconclusive: 79.4 µM [inhibitor, partial curve, poor fit]"
CCN1CCCc2cc(CN(CCN3CCOCC3)C(=S)Nc3ccccc3C)ccc21,,"inconclusive: 25.1 µM [inhibitor, partial curve, poor fit]"
CC(C)(C)NC(=O)CNc1nc(C(F)(F)F)nc2ccccc12,inactive: 31.4%,
C=C1CCN([C@@H](CC(C)C)C(=O)Nc2nc3ccc(Cl)cc3s2)S(=O)(=O)c2ccccc21,,"inconclusive: 35.5 µM [inhibitor, partial curve, poor fit]"
O=C(CSc1nnc2sc3ccccc3n12)N1CCN(c2ccccc2)CC1,inactive: -5.43%,
CNS(=O)(=O)c1cccc(C(=O)OCc2cc(=O)oc3c(C)c(C)ccc23)c1,,"inconclusive: 44.7 µM [inhibitor, partial curve, poor fit]"
Cc1ccc(NS(=O)(=O)c2ccc3[nH]c(=O)oc3c2)cc1Cl,,"inconclusive: 89.1 µM [inhibitor, partial curve, poor fit]"
O=C(O)/C=C/c1ccc(Oc2ccc(Cl)cc2)cc1,inactive: -14.2%,
CCN(CCNC(=O)C1CCCN(Cc2nc(-c3ccc(OC)cc3)oc2C)C1)c1ccccc1 (stereo unspecified),inactive: 0%,
Cc1ccc(C2NC(=O)c3c(sc4c3CCN(Cc3ccccc3)C4)N2)o1 (stereo unspecified),,"inconclusive: 0.316 µM [inhibitor, full curve, poor fit]"
Cc1[nH]n(-c2ccc([N+](=O)[O-])cc2)c(=O)c1C=NCCN1CCN(C(=O)c2ccccc2)CC1,inactive: 119%,
C(=C\c1cccs1)/c1ccccn1,,"inconclusive: 126 µM [inhibitor, single point]"
CCn1c(N2CCC(Cc3ccccc3)CC2)nc2c1c(=O)[nH]c(=O)n2C,,"inconclusive: 50.1 µM [inhibitor, single point]"
Cc1ccc2c(c1)-c1onc(C(=O)N3CCN(c4cccc(C)c4C)CC3)c1CO2,inactive: 0%,
CSc1nsc(SCC(=O)Nc2ccc(O)c(C(=O)O)c2)n1,,active: 39.8 µM
CC(C)n1cc(/C=C/c2cc[n+](C)cc2)c2ccccc21,,"inconclusive: 44.7 µM [inhibitor, partial curve, poor fit]"
O=C(NNC(=O)c1ccccc1Br)c1ccccc1Cl,inactive: 8.11%,
COc1ccc(OCC2c3cc(OC)c(OC)cc3CCN2C(=O)C(C)C)cc1 (stereo unspecified),inactive: -5.87%,
O=C(Nc1ccc2oc(-c3ccc(F)cc3)cc(=O)c2c1)c1cccs1,inactive: -9.21%,

Compound,"activity change, negative = inhibition",Potency
Cc1nc(N)c(Cc2ccc(Cl)cc2Cl)c(N)n1,inactive: -5.45%,
COc1cccc(CN2CCCC23Cc2ccccc2CNC3=O)c1 (stereo unspecified),,"inconclusive: 63.1 µM [inhibitor, partial curve, poor fit]"
CC(Sc1ccc(S(=O)(=O)N2CCOCC2)cc1[N+](=O)[O-])C(=O)O (stereo unspecified),,"inconclusive: 35.5 µM [inhibitor, partial curve, poor fit]"
O=C1C=C(C2OC(CO)C(O)C2O)C(=O)N1 (stereo unspecified),inactive: 4.01%,
Fc1ccc(NC(=S)N2CCCc3ccccc32)cc1,,"inconclusive: 39.8 µM [inhibitor, partial curve, poor fit]"
COc1ccc(C(=O)NC(=S)NNC(=O)c2ccco2)cc1,,"inconclusive: 17.8 µM [inhibitor, partial curve, poor fit]"
COc1cc(F)c(S(=O)(=O)Nc2ccccc2-c2n[nH]c(C3CC3)n2)cc1OC,inactive: 12.1%,
COC(=O)C1=CN(C2CCCCC2)C=C(C(=O)OC)C1c1ccc2c(c1)OCO2,,"inconclusive: 39.8 µM [inhibitor, partial curve, poor fit]"
O=C(/C=C/c1cccc(Cl)c1)NC(C1CC1)C1CC1,inactive: -2.19%,
O=C(Cn1c2[n+](c3ccc(C(F)(F)F)cc31)CCCCC2)c1cccc([N+](=O)[O-])c1,inactive: -7.04%,
COC(=O)[C@]12CCCCC=C1N(CCC1=CCCCC1)C(=O)[C@H](CC(=O)NCC1CCCCC1)C2,,"inconclusive: 25.1 µM [inhibitor, partial curve, poor fit]"
CN1CCN(C(=O)c2ccnc(-c3nnc4ccc(N(C)c5ccccc5)nn34)c2)CC1,,"inconclusive: 31.6 µM [inhibitor, partial curve, poor fit]"
C#Cc1cccc(NC(=O)c2n[nH]c(=O)c3ccccc23)c1,inactive: -16.6%,
CCC(CO)Nc1ccc(-c2n[nH]c(=O)c3ccccc23)cc1[N+](=O)[O-] (stereo unspecified),,"inconclusive: 158 µM [inhibitor, partial curve, poor fit]"
COc1ccc(NC(=O)CN(C)CCOc2ccc(Cl)cc2)cc1OC,,"inconclusive: 3.55 µM [inhibitor, full curve, poor fit]"
O=[N+]([O-])c1ccc2c(c1)nc1n2CCN(CC2CCCO2)C1 (stereo unspecified),inactive: -15.5%,
O=c1cc2nc(-c3ccccc3)nc(SCc3cccc(Br)c3)n2[nH]1,inactive: -19.2%,
CCN1CCN(C(=O)Cn2ncc3c4ccccc4n(Cc4ccccc4F)c3c2=O)CC1,inactive: -17.4%,
Cc1ccc2nc(NC(=O)c3nn(C(C)C)c(=O)c4ccccc34)sc2c1,inactive: 4.01%,
CC[N+](C)(CC#CC(O)(c1ccccc1)C1CCCC1)C(C)C (stereo unspecified),,"inconclusive: 0.562 µM [inhibitor, full curve, poor fit]"
Cc1cccc(N2CCN(C(c3ccc(F)cc3)c3nnc(-c4ccccc4)o3)CC2)c1C (stereo unspecified),,"inconclusive: 141 µM [inhibitor, partial curve, poor fit]"
CCOCCn1c(Br)nc2c1c(=O)n(C)c(=O)n2C,inactive: -8.7%,
Cc1c(C)c2ccc(OCC(=O)NCc3ccc(S(N)(=O)=O)cc3)c(C)c2oc1=O,,"inconclusive: 112 µM [inhibitor, single point]"

# Single values from the entries so far:
# Entry of `CCC1=C(C(=O)OC)C(c2ccccc2OC)N2C(CC(=O)N3CCC(C)CC3)=CSC2=N1` (stereo unspecified) under Potency: inconclusive: 3.98 µM [inhibitor, full curve, poor fit]
# Entry of `Cc1nc(N)c(Cc2ccc(Cl)cc2Cl)c(N)n1` under activity change, negative = inhibition: inactive: -5.45%
# Entry of `O=C(NCC#Cc1ccccc1)c1cccc2cccnc12` under activity change, negative = inhibition: inactive: 63.7%
